Results on 40 targets are retold here after the supplement of paper PMC10849652.

Protein sequences, listed by entry. Tags and fused reporters are not part of them. Lines headed by an entry give the natural chain unless they say otherwise; changes in a name come on top.
UniProt Q9BTE3: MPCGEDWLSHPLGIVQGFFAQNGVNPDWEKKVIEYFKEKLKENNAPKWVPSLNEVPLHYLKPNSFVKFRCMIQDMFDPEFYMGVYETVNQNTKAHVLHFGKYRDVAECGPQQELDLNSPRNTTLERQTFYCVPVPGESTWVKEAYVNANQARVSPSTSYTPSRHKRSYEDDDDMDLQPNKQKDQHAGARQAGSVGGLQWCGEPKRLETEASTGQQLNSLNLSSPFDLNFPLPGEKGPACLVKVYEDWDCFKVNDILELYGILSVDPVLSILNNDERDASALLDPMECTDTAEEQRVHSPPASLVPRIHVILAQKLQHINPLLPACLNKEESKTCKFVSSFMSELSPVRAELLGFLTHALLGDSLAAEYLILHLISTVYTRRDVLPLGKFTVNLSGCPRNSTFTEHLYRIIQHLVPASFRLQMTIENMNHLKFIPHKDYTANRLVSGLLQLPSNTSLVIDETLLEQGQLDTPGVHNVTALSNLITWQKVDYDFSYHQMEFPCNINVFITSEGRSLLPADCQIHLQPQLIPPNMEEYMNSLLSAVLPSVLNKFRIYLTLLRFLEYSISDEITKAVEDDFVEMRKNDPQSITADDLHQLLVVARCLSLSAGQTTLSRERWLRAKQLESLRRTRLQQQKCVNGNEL
UniProt Q9NRN9: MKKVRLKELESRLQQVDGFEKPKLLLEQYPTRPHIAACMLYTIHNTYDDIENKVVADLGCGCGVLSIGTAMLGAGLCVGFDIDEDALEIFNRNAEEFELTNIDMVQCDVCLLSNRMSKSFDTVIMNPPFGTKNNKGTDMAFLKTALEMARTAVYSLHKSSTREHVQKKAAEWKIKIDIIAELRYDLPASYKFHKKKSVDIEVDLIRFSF
UniProt P40926: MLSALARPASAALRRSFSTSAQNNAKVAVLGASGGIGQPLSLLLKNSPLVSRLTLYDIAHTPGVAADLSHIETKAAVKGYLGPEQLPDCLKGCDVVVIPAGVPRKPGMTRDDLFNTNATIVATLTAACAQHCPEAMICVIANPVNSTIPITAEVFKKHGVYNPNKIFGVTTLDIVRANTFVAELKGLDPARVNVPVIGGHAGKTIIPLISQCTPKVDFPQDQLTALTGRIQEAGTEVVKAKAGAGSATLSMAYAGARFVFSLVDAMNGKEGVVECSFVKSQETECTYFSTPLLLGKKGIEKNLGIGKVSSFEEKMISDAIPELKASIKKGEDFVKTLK
UniProt Q9BV79: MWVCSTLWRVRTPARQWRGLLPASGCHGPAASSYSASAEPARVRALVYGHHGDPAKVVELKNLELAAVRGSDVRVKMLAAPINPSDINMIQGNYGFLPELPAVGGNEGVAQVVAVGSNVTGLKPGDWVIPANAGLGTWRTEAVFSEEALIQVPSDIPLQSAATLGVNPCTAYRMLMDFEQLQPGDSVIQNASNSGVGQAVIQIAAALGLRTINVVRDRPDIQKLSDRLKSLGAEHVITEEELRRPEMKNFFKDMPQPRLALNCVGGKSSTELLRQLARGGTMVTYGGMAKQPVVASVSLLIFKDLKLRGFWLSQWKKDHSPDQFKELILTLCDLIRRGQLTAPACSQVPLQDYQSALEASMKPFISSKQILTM
UniProt Q14728: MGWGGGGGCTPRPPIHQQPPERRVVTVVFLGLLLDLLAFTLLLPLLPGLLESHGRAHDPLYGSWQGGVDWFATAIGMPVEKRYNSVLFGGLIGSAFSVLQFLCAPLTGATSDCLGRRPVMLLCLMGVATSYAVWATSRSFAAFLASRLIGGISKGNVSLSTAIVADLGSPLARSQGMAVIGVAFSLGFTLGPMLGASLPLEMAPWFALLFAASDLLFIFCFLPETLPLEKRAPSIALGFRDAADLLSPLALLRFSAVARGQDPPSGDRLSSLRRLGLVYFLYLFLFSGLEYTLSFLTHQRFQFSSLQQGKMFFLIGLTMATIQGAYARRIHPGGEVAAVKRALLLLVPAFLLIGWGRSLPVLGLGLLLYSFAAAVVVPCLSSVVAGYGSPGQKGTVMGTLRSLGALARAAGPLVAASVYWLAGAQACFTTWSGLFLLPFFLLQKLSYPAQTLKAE
UniProt Q07820, whole entry, looked up: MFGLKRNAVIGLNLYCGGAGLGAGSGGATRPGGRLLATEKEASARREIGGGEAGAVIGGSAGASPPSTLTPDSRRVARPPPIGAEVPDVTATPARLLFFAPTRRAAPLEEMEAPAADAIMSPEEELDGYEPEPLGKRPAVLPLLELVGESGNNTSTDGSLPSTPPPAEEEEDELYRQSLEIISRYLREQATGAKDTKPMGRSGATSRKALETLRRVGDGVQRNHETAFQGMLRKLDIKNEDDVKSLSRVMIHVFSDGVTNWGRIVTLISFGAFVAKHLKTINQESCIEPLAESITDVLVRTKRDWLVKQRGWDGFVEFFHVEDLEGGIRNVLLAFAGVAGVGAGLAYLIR
UniProt O43513: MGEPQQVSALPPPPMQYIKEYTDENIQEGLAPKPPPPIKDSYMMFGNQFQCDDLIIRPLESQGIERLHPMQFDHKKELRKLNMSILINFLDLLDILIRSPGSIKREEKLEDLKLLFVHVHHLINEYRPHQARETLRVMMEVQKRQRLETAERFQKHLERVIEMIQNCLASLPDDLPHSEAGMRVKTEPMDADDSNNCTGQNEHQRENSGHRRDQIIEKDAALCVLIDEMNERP
UniProt Q5TF39: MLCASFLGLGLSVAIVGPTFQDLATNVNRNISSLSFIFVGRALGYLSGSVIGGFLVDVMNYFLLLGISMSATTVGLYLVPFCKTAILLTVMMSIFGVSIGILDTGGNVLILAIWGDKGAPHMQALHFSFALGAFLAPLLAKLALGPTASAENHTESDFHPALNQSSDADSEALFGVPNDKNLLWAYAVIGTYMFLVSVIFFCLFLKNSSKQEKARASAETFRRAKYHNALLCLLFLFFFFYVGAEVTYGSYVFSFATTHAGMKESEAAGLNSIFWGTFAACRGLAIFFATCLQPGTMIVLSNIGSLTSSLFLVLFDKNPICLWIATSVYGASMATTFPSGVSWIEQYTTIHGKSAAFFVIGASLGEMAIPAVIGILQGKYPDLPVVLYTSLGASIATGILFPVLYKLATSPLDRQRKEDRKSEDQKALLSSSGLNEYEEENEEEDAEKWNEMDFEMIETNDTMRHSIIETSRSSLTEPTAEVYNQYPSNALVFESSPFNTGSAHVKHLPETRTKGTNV
UniProt Q9NPJ6: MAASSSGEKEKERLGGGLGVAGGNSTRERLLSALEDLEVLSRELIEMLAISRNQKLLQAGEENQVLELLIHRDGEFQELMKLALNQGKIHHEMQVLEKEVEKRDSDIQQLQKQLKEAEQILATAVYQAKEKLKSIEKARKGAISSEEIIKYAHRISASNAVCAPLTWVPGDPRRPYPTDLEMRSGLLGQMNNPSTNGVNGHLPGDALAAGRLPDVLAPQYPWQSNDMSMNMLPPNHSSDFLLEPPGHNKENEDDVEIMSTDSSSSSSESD
UniProt Q86W50: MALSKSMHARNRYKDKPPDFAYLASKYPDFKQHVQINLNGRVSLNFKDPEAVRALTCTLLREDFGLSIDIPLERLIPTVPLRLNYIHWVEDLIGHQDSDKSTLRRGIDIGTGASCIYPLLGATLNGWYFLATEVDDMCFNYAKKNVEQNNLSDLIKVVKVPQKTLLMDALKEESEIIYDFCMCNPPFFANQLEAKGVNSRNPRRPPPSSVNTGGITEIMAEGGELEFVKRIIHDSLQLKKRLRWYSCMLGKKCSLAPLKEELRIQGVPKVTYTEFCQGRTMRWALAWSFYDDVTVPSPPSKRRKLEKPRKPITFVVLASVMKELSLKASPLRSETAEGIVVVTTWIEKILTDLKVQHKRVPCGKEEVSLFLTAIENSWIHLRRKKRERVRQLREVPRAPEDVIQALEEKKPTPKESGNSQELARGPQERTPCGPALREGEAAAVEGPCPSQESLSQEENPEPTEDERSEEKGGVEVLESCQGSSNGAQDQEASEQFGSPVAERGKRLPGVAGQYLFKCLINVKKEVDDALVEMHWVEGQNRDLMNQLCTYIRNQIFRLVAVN
UniProt Q96AQ8: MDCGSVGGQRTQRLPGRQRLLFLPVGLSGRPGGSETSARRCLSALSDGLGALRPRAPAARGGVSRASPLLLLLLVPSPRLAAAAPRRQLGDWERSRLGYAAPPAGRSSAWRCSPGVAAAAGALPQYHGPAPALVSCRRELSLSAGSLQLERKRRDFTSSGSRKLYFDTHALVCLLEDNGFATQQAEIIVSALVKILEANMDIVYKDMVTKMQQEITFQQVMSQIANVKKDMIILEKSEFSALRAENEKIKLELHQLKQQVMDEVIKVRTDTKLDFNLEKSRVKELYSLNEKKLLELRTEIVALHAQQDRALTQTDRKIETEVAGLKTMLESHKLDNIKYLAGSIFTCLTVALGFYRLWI
UniProt P50579: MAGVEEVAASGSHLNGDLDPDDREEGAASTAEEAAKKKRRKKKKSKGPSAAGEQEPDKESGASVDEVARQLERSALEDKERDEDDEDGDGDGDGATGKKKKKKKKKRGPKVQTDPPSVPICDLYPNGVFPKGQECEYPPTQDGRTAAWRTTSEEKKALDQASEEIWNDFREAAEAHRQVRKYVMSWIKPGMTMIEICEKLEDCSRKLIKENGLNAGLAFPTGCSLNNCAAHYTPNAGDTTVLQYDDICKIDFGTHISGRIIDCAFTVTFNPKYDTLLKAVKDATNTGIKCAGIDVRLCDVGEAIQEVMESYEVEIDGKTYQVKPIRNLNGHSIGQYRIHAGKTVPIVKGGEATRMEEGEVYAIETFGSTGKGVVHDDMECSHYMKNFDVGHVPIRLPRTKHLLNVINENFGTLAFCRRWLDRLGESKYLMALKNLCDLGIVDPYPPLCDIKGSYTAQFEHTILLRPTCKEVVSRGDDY
UniProt Q16626: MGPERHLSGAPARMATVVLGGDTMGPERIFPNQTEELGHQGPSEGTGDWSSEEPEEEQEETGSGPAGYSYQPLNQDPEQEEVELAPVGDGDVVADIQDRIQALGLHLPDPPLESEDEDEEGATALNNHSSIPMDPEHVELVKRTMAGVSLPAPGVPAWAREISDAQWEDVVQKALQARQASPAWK
UniProt P55081: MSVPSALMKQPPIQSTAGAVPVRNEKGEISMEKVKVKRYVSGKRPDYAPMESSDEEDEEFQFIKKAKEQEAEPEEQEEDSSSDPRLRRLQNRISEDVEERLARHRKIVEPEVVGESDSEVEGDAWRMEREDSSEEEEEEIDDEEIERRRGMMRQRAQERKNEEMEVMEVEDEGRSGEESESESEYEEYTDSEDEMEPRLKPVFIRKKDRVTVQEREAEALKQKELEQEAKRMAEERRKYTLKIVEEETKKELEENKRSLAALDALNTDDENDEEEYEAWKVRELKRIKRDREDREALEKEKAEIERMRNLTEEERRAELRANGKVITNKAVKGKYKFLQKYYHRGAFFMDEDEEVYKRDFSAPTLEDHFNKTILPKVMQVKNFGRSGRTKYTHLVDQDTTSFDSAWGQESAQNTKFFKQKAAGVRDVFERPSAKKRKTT
UniProt Q86U44, whole entry, looked up: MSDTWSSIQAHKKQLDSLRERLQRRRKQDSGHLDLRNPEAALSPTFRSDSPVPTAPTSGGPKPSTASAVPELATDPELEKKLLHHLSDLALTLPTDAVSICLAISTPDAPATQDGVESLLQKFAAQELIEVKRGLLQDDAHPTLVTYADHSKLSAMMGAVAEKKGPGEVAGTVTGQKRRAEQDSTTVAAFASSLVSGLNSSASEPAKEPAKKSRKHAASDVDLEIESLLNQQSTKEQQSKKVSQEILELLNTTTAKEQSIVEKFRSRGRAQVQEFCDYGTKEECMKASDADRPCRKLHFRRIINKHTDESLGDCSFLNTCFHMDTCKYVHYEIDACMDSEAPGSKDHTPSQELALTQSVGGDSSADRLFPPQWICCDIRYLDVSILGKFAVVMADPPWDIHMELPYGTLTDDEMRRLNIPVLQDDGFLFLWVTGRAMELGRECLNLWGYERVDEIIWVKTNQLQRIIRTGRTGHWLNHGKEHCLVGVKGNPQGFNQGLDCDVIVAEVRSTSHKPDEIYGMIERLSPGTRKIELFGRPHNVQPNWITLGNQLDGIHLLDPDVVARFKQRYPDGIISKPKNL
UniProt Q14814: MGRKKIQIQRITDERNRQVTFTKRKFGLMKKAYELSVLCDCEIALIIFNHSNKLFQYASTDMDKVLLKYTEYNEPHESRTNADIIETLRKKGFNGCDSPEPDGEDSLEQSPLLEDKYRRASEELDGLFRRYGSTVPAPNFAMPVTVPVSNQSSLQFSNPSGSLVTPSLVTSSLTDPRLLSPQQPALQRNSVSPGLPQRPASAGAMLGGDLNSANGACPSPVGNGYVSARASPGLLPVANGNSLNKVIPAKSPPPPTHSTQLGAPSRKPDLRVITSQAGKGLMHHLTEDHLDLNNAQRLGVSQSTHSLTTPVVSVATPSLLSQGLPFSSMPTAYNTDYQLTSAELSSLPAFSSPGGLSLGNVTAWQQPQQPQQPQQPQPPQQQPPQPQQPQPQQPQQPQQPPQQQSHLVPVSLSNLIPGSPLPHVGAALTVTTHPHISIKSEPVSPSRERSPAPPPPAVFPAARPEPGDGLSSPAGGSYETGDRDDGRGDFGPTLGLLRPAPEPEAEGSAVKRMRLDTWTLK

This is one part of the list.

Compound in the assay: NC1(c2ccc(-c3nc4ccn5c(=O)[nH]nc5c4cc3-c3ccccc3)cc2)CCC1
The assay is described as follows: log2 fold change, soluble protein after heating vs DMSO (PISA); higher = thermal stabilisation; K562 lysate, 10 uM; active = over 0.2 and 3.5 SD of the protein, either way, in both replicates (recomputed). The essentials:
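To prepare the extract, K562 pellets were dounce-homogenised in PBS pH 7.4 with 1 mM MgCl2, giving crude material at 1 mg/mL protein. This was treated with 10 μM compound for 30 min, then heated in aliquots for 3 min over 48°C-58°C before pooling and addition of NP-40 to 0.5% at 4°C. Centrifugation at 21,000xg for 90 min left soluble protein in the supernatant, which TMTpro 16plex LC-MS/MS quantified with equalised channel sums. Results are log-two fold changes in thermal stability compared with solvent controls, from duplicates.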
As for MCMBP (UniProt Q9BTE3), the log2 fold change is inactive: -0.033.

Turning to MED20 (UniProt Q9H944), the log2 fold change was inactive: 0.036.

For the target METTL5 (UniProt Q9NRN9), the log2 fold change is inactive: -0.04.

With MDH2 (UniProt P40926), the log2 fold change was inactive: 0.007.

Regarding METTL14 (UniProt Q9HCE5), the log2 fold change was inactive: -0.015.

As to MECR (UniProt Q9BV79), the log2 fold change was inactive: -0.028.

Take METAP1D (UniProt Q6UB28): the log2 fold change was inactive: -0.072.

On to MEF2A (UniProt Q02078), for which the log2 fold change is inactive: -0.029.

As to MFSD10 (UniProt Q14728), the log2 fold change was inactive: -0.048.

On to MCL1 (UniProt Q07820), for which the log2 fold change is inactive: 0.224.

With MCM6 (UniProt Q14566), the log2 fold change is inactive: 0.009.

For the target MED7 (UniProt O43513), the log2 fold change was inactive: 0.155.

For MFSD4B (UniProt Q5TF39), the log2 fold change is inactive: 0.038.

Consider ME2 (UniProt P23368), for which the log2 fold change is inactive: 0.033.

Regarding METTL2A (UniProt Q96IZ6), the log2 fold change is inactive: 0.005.

Consider MFN2 (UniProt O95140), for which the log2 fold change was inactive: -0.03.

Take MED8 isoform 2 (UniProt Q96G25): the log2 fold change was inactive: 0.024.

Turning to MED4 (UniProt Q9NPJ6), the log2 fold change was inactive: -0.024.

METTL16 (UniProt Q86W50): the log2 fold change is inactive: 0.023.

MEF2C isoform 5 (UniProt Q06413): the log2 fold change was inactive: 0.047.

On to MCUR1 (UniProt Q96AQ8), for which the log2 fold change is inactive: 0.016.

Take METAP2 (UniProt P50579): the log2 fold change is inactive: 0.001.

For the target MBD3 (UniProt O95983), the log2 fold change was inactive: 0.018.

For the target MBD2 (UniProt Q9UBB5), the log2 fold change was inactive: 0.024.

Regarding MED15 (UniProt Q96RN5), the log2 fold change was inactive: 0.

Consider MCFD2 (UniProt Q8NI22), for which the log2 fold change was inactive: 0.029.

Regarding MCM2 (UniProt P49736), the log2 fold change is inactive: -0.016.

As for MEAF6 isoform 3 (UniProt Q9HAF1), the log2 fold change is inactive: 0.

Regarding ME3 (UniProt Q16798), the log2 fold change is inactive: 0.001.

As to MECP2 isoform 2 (UniProt P51608), the log2 fold change is inactive: -0.034.

MBOAT2 (UniProt Q6ZWT7): the log2 fold change was inactive: -0.012.

With MCM4 (UniProt P33991), the log2 fold change is inactive: -0.022.

As to MEA1 (UniProt Q16626), the log2 fold change was inactive: -0.012.

As to MFAP1 (UniProt P55081), the log2 fold change is inactive: 0.

As for MED30 (UniProt Q96HR3), the log2 fold change was inactive: 0.008.

For METTL3 (UniProt Q86U44), the log2 fold change is inactive: -0.008.

In the case of MCRIP1 (UniProt I3L4Q0), the log2 fold change was inactive: 0.

In the case of MCRIP2 (UniProt Q9BUT9), the log2 fold change was inactive: 0.066.

Take MEF2D (UniProt Q14814): the log2 fold change was inactive: -0.036.

For MESD (UniProt Q14696), the log2 fold change was inactive: -0.015.
